The list shows a part of the results.
compound: CC(C)(O)CC(=O)NCCn1ccc2ncnc(Nc3ccc(Oc4cccc(C(F)(F)F)c4)c(Cl)c3)c21; assay: log2 fold change, soluble protein after heating vs DMSO (PISA); higher = thermal stabilisation; K562 lysate, 10 uM; active = over 0.2 and 3.5 SD of the protein, either way, in both replicates (recomputed)
Outline: (§1)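 Dounce homogenisation of K562 pellets in PBS pH 7.4 with 1 mM MgCl2 produced a crude extract, used at 1 mg/mL protein. Exposure to 10 μM compound lasted 30 min, and aliquots were then heated for 3 min across 48°C-58°C, pooled and brought to 0.5% NP-40 at 4°C. The supernatant after 21,000xg for 90 min was quantified by TMTpro 16plex LC-MS/MS with channel sums equalised. Duplicate values are given as log-two fold change in thermal stability relative to solvent controls.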

By UniProt entry, the sequences of proteins in these tests, tags left out. Where a name states a change or a piece, a line headed by the entry shows the natural chain unless it says otherwise.
UniProt Q96QU6: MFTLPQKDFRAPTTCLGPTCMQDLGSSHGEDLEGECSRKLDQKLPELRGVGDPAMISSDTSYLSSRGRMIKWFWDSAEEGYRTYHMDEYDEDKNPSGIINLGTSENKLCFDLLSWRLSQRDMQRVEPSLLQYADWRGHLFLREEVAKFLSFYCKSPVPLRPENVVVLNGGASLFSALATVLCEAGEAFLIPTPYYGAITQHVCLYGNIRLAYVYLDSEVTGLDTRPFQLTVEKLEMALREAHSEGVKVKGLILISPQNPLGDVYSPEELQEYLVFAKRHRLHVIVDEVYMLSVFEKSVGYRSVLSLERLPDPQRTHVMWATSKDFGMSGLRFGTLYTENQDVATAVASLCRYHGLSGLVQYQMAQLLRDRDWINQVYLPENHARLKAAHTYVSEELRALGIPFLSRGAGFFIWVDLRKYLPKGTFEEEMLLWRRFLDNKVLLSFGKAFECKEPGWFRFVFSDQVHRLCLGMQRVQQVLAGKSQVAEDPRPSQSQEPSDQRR
UniProt Q9NX38: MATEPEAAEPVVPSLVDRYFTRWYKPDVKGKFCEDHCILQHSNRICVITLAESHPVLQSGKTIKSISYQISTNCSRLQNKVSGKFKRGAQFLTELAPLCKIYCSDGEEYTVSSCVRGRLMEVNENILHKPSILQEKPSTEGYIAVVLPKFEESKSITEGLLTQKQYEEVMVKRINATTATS
UniProt O75027: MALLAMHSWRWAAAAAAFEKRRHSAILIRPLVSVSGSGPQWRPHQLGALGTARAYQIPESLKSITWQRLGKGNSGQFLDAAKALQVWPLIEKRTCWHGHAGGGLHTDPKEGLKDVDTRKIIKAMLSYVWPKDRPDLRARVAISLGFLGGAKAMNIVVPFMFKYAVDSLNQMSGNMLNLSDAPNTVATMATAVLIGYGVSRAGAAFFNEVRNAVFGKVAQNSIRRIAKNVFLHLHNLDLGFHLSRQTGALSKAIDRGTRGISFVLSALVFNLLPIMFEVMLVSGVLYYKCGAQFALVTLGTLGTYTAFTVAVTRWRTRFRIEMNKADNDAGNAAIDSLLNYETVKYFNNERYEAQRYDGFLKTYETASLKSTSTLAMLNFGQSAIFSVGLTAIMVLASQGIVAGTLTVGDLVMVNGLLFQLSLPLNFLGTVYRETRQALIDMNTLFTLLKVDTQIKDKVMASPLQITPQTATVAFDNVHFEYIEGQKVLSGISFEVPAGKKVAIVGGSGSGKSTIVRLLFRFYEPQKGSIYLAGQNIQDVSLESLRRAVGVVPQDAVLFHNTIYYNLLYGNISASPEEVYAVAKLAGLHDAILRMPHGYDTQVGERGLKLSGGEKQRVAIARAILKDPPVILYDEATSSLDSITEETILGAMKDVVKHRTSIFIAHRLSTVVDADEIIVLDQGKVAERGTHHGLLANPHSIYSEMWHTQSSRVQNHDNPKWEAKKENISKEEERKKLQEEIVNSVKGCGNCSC
UniProt P49748: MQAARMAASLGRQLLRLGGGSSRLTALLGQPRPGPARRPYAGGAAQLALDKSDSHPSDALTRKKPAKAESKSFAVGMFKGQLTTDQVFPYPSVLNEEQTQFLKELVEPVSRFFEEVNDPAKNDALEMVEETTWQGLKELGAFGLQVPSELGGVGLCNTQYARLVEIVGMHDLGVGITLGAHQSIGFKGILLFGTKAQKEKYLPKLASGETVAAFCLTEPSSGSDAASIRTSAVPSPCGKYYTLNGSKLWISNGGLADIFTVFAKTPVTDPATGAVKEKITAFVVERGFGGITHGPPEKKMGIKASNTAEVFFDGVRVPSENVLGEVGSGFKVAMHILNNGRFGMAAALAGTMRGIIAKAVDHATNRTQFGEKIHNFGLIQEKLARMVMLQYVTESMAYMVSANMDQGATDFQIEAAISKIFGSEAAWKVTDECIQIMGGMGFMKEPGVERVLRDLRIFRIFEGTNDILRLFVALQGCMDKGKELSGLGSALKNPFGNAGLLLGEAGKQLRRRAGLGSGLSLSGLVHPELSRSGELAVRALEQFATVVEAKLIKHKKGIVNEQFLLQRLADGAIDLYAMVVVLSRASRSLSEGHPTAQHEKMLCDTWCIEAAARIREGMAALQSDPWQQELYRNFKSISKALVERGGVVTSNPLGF
UniProt P28288: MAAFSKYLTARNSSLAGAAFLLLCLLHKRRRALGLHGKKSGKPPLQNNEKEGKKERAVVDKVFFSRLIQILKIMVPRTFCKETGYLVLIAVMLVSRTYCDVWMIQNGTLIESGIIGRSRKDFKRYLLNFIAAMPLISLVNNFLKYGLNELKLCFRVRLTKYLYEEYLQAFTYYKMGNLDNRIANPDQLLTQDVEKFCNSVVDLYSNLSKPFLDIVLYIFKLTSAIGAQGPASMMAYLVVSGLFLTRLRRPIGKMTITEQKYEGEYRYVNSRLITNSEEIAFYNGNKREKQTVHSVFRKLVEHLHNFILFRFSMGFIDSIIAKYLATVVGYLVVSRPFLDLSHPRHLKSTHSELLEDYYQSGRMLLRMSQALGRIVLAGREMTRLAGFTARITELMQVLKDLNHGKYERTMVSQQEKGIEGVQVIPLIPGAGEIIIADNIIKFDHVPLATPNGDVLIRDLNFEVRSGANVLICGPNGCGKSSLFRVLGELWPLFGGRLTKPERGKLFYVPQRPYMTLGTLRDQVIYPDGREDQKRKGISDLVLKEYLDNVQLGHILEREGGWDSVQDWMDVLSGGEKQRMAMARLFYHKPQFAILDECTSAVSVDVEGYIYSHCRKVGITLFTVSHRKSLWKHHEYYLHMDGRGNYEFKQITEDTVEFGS
UniProt P01023, whole entry, looked up: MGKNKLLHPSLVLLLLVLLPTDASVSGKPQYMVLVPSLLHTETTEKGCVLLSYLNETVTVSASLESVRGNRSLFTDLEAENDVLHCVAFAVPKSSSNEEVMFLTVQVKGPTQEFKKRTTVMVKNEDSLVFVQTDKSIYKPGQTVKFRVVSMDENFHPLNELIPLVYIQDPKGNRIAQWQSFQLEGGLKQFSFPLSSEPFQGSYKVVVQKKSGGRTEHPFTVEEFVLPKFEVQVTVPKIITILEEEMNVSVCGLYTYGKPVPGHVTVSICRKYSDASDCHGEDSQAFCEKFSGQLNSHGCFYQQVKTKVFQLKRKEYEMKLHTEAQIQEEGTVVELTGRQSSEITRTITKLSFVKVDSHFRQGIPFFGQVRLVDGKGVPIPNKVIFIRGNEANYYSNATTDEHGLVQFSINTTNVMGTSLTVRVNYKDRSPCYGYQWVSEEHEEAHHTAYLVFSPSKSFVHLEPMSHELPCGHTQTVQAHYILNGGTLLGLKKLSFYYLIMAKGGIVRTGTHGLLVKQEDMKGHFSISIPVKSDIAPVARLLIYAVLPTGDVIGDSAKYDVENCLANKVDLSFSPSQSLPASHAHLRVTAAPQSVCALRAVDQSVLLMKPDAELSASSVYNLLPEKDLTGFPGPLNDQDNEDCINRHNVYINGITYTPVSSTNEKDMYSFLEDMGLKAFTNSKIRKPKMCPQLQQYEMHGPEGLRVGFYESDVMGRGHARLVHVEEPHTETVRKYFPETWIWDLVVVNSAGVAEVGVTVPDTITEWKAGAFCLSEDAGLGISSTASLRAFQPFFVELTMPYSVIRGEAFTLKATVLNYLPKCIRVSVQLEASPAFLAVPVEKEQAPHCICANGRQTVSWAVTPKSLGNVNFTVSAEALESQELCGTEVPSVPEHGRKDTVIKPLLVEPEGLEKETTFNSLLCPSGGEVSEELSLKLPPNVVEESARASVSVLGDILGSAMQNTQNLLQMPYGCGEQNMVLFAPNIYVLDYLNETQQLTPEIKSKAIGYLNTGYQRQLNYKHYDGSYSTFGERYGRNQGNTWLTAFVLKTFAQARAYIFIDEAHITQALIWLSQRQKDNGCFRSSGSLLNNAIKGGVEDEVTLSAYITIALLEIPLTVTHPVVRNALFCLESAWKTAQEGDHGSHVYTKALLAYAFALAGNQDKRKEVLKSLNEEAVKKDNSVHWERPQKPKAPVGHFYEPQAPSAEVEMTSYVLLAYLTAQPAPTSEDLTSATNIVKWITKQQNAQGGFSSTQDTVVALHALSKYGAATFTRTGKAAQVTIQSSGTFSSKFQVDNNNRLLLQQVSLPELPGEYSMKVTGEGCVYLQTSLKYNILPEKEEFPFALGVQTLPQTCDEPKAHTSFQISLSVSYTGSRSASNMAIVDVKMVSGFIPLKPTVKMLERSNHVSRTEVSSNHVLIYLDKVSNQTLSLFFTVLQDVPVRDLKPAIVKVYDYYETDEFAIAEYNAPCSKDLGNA
UniProt Q8IZP0: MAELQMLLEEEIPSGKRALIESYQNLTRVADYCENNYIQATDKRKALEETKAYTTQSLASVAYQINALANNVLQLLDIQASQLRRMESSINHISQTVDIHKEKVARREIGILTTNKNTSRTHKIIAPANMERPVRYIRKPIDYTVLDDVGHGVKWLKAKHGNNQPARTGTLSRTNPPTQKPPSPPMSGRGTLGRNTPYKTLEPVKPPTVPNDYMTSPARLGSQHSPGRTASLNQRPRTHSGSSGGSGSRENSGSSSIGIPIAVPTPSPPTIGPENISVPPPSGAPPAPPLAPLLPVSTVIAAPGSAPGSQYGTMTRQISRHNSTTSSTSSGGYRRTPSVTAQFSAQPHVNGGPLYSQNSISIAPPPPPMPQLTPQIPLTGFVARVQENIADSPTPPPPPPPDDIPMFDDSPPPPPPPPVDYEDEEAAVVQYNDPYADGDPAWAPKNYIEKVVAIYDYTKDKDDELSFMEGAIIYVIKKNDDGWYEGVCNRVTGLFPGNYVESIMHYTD
UniProt Q9NY61: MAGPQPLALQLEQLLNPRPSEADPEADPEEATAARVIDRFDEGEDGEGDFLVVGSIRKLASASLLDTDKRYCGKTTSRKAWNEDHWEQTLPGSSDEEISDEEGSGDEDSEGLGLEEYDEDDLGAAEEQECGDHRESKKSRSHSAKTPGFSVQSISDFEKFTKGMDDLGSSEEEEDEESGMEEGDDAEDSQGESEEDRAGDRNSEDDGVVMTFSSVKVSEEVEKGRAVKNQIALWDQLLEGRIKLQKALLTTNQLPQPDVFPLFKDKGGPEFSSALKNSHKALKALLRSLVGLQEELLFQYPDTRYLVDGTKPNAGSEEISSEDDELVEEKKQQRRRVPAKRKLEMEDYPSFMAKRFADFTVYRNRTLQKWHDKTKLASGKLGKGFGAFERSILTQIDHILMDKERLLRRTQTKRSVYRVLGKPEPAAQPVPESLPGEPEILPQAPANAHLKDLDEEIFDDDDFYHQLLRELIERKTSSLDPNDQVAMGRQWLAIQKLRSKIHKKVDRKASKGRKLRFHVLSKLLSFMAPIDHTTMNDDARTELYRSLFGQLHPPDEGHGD
UniProt Q9NUJ1: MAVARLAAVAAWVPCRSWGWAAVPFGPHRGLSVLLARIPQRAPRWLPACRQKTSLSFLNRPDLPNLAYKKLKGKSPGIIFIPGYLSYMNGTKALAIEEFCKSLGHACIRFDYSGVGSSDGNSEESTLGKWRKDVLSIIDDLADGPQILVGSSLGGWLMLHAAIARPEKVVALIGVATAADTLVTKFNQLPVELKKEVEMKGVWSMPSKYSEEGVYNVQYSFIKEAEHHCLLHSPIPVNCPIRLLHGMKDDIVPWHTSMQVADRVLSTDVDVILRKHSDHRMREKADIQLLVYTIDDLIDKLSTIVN
UniProt Q96GS6: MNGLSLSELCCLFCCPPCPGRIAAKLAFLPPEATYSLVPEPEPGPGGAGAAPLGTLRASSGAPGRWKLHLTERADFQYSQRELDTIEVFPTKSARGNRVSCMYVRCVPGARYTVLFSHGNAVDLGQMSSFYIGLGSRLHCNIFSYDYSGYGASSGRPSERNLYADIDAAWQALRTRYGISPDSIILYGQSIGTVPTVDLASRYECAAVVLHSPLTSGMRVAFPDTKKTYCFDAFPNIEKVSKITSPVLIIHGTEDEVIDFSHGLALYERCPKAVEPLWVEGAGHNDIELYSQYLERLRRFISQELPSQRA
UniProt Q9ULW3: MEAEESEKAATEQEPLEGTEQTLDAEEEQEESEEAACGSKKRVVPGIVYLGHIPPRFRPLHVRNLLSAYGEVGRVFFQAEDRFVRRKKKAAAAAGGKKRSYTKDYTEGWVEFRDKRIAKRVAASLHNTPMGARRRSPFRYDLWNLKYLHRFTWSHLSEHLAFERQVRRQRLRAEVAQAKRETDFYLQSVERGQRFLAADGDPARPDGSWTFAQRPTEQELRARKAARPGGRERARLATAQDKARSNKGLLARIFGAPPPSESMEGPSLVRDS
UniProt P16219: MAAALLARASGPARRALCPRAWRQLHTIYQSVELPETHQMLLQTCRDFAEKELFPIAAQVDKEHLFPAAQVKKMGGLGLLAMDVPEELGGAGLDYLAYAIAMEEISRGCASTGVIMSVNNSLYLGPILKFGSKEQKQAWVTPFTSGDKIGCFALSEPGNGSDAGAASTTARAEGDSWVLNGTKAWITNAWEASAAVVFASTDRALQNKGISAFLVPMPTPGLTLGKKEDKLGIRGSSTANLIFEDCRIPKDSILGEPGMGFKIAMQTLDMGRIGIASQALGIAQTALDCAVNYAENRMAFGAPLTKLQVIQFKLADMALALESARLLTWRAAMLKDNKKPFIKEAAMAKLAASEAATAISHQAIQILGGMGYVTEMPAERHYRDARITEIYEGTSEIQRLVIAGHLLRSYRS

Target	log2 fold change
AAK1, A0A096LP25	inactive: -0.03
AAMDC (UniProt Q9H7C9)	inactive: -0.024
ACIN1 (UniProt E7EQT4)	inactive: -0.052
ACCS (UniProt Q96QU6)	inactive: -0.146
A0A0B4J2A0, A0A0B4J2A0	inactive: -0.079
ABL1 isoform 2 (UniProt P00519)	inactive: 0.024
ABITRAM (UniProt Q9NX38)	inactive: -0.01
AACS (UniProt Q86V21)	inactive: -0.046
ABCF2 isoform 2 (UniProt Q9UG63)	inactive: 0.003
ACACA isoform 4 (UniProt Q13085)	inactive: 0.013
ABCB7 isoform 2 (UniProt O75027)	inactive: -0.071
ACADVL isoform 3 (UniProt P49748)	inactive: -0.066
ABCC4 (UniProt O15439)	inactive: -0.027
ABCD3 (UniProt P28288)	inactive: 0.064
ABRAXAS2 (UniProt Q15018)	inactive: 0.034
ACBD3 (UniProt Q9H3P7)	inactive: -0.007
ACIN1 isoform 5 (UniProt Q9UKV3)	inactive: -0.028

Target	log2 fold change
A2M (UniProt P01023)	inactive: -0.066
AARS (UniProt P49588)	inactive: 0.021
ABI1 isoform 9 (UniProt Q8IZP0)	inactive: -0.005
AATF (UniProt Q9NY61)	inactive: -0.012
AAGAB (UniProt Q6PD74)	inactive: 0.04
A0A096LPI6, A0A096LPI6	inactive: -0.009
ABCB10 (UniProt Q9NRK6)	inactive: 0.023
ABHD10 (UniProt Q9NUJ1)	inactive: 0.031
ABHD17A isoform 2 (UniProt Q96GS6)	inactive: -0.035
ABT1 (UniProt Q9ULW3)	inactive: -0.041
ACO1 (UniProt P21399)	inactive: 0.019
ACADS (UniProt P16219)	inactive: -0.026
ACBD6 (UniProt Q9BR61)	inactive: -0.039
ABCF1 (UniProt Q8NE71)	inactive: 0.005
ABHD16A (UniProt O95870)	inactive: 0.018
AARSD1 isoform 3 (UniProt Q9BTE6)	inactive: 0.016

compound: CC(C)C1=C2N=C(C=C(N2N=C1)NCC3=CC=CC=C3)NCCCCCCN; assay: as above
Outline: as §1

Target	log2 fold change
AAK1, A0A096LP25	inactive: 0.065
AAMDC (UniProt Q9H7C9)	inactive: 0.015
ACIN1 (UniProt E7EQT4)	inactive: 0.028
ACCS (UniProt Q96QU6)	inactive: -0.024
A0A0B4J2A0, A0A0B4J2A0	inactive: -0.013
ABL1 isoform 2 (UniProt P00519)	inactive: -0.017
ABITRAM (UniProt Q9NX38)	inactive: -0.048
AACS (UniProt Q86V21)	inactive: -0.014
ABCF2 isoform 2 (UniProt Q9UG63)	inactive: 0.01
ACACA isoform 4 (UniProt Q13085)	inactive: 0.01
ABCB7 isoform 2 (UniProt O75027)	inactive: -0.067
ACADVL isoform 3 (UniProt P49748)	inactive: 0.095
ABCC4 (UniProt O15439)	inactive: -0.013
ABCD3 (UniProt P28288)	inactive: 0.185
ABRAXAS2 (UniProt Q15018)	inactive: 0.008
ACBD3 (UniProt Q9H3P7)	inactive: 0.016
ACIN1 isoform 5 (UniProt Q9UKV3)	inactive: -0.021

Target	log2 fold change
A2M (UniProt P01023)	inactive: 0.008
AARS (UniProt P49588)	inactive: -0.009
ABI1 isoform 9 (UniProt Q8IZP0)	inactive: 0.031
AATF (UniProt Q9NY61)	inactive: 0.019
AAGAB (UniProt Q6PD74)	inactive: -0.055
A0A096LPI6, A0A096LPI6	inactive: 0.003
ABCB10 (UniProt Q9NRK6)	inactive: -0.041
ABHD10 (UniProt Q9NUJ1)	inactive: 0
ABHD17A isoform 2 (UniProt Q96GS6)	inactive: 0.032
ABT1 (UniProt Q9ULW3)	inactive: 0.012
ACO1 (UniProt P21399)	inactive: -0.024
ACADS (UniProt P16219)	inactive: -0.002
ACBD6 (UniProt Q9BR61)	inactive: 0.002
ABCF1 (UniProt Q8NE71)	inactive: -0.005
ABHD16A (UniProt O95870)	inactive: 0.027
AARSD1 isoform 3 (UniProt Q9BTE6)	inactive: 0.007

compound: CC1=C(C(CC(=O)N1)C2=CC=C(C=C2)C(F)(F)F)C(=O)NC3=C(C=C4C(=C3)C=NN4)F; assay: as above
Outline: as §1

Target	log2 fold change
AAK1, A0A096LP25	inactive: -0.072
AAMDC (UniProt Q9H7C9)	inactive: -0.002
ACIN1 (UniProt E7EQT4)	inactive: -0.017
ACCS (UniProt Q96QU6)	inactive: -0.062
A0A0B4J2A0, A0A0B4J2A0	inactive: 0
ABL1 isoform 2 (UniProt P00519)	inactive: -0.014
ABITRAM (UniProt Q9NX38)	inactive: 0.044
AACS (UniProt Q86V21)	inactive: 0.02
ABCF2 isoform 2 (UniProt Q9UG63)	inactive: 0.007
ACACA isoform 4 (UniProt Q13085)	inactive: -0.027
ABCB7 isoform 2 (UniProt O75027)	inactive: -0.002
ACADVL isoform 3 (UniProt P49748)	inactive: -0.01
ABCC4 (UniProt O15439)	inactive: -0.075
ABCD3 (UniProt P28288)	inactive: 0.01
ABRAXAS2 (UniProt Q15018)	inactive: 0.022
ACBD3 (UniProt Q9H3P7)	inactive: 0.001
ACIN1 isoform 5 (UniProt Q9UKV3)	inactive: -0.024

Target	log2 fold change
A2M (UniProt P01023)	inactive: 0.043
AARS (UniProt P49588)	inactive: -0.022
ABI1 isoform 9 (UniProt Q8IZP0)	inactive: -0.02
AATF (UniProt Q9NY61)	inactive: -0.02
AAGAB (UniProt Q6PD74)	inactive: 0.012
A0A096LPI6, A0A096LPI6	inactive: -0.019
ABCB10 (UniProt Q9NRK6)	inactive: -0.011
ABHD10 (UniProt Q9NUJ1)	inactive: -0.01
ABHD17A isoform 2 (UniProt Q96GS6)	inactive: -0.042
ABT1 (UniProt Q9ULW3)	inactive: -0.025
ACO1 (UniProt P21399)	inactive: -0.014
ACADS (UniProt P16219)	inactive: -0.041
ACBD6 (UniProt Q9BR61)	inactive: 0.034
ABCF1 (UniProt Q8NE71)	inactive: -0.003
ABHD16A (UniProt O95870)	inactive: -0.022
AARSD1 isoform 3 (UniProt Q9BTE6)	inactive: -0.029
